# In all, about 33,000 sequences were measured (“E-score (-0.5 to 0.5)”: median about -0.016, highest 2% from about 0.3 on). The list shows a part of the results.
# Molecular target: T1, Yer184c (UniProt P39961)
# T1 sequence: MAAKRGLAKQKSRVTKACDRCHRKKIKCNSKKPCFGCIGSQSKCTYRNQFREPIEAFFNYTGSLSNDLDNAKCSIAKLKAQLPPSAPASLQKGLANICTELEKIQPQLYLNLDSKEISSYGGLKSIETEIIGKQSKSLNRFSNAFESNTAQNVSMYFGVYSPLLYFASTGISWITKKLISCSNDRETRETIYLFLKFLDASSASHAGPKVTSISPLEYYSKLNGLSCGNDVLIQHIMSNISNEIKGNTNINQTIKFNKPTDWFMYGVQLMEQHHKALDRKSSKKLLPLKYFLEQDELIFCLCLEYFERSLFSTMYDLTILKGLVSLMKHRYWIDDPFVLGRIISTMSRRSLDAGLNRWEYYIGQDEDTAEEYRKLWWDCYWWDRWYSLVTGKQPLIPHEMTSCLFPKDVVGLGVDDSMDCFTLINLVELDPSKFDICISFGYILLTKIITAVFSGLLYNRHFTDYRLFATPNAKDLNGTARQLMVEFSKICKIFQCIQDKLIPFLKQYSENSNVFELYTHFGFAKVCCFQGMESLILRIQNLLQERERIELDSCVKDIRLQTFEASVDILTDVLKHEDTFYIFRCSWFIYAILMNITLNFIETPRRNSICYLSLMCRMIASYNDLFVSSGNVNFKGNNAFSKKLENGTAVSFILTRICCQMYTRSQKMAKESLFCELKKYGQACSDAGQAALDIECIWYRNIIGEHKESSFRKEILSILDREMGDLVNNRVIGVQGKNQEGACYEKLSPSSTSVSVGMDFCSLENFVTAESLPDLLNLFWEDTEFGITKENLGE
# Experiment: PBM E-score (8-mer binding enrichment) (E-score (-0.5 to 0.5)); higher = stronger / more preferred TF binding
# Settings: protein concentration: 100 nM; construct: GST-full length
# Procedure, shortened: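 GST-tagged yeast TFs (full-length or DNA-binding domain) were made by PURExpress in vitro transcription/translation and applied at about 100-200 nM to universal all-10-mer Agilent arrays. The arrays were made double-stranded by primer extension, on fresh or once-stripped slides. Bound protein was detected with fluorescent anti-GST, and scans were normalised with masliner. Each ungapped eight-base word, pooled with its reverse complement, received an E-score (modified Wilcoxon-Mann-Whitney statistic) from the Universal PBM Analysis Suite.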
row,Sequence,PBM E-score
1,AACTACGA,-0.00342
2,CCAGGATC,0.0359
3,ATCACTCG,-0.126
4,AGCTGCAG,-0.044
5,GTTTTAGA,0.147
6,CCTAAAGG,-0.122
7,AGCAGGTC,-0.0774
8,AGACTGCA,-0.24
9,AACAGGAA,0.0432
10,CATCTGTC,-0.214
11,CCAGTCCA,-0.252
12,CCCAAATC,-0.0623
13,GTCGCACA,-0.0371
14,GCGCCAAA,-0.00708
15,ACTCGACG,-0.0124
16,CCTCGGAC,0.17
17,GCCTCCGC,-0.149
18,GCCGTCCC,0.031
19,CCGATTAA,0.256
20,AATACTTC,0.0502
21,CGTAACCC,-0.0638
22,ACATCGTC,-0.00796
23,CATTGTCC,-0.00591
24,CAAATCAC,-0.217
25,AGATGCCT,-0.0639

row,Sequence,PBM E-score
1,AGTAAACG,0.0151
2,CGATGAAA,0.0309
3,CATATGGG,-0.176
4,AAGACGGA,0.181
5,TATCTGAA,0.108
6,CTCGACCC,-0.118
7,ATAGGAGC,-0.0977
8,AATTTCGA,-0.0707
9,GAAGAGAA,0.0856
10,GTAGATTA,0.173
11,CTAGACAC,-0.00812
12,ATAGGCTA,-0.0853
13,CCTAATTC,0.00904
14,TGCAGGAA,0.0285
15,AAAAACCG,0.0868
16,CGGTGCAG,0.115
17,GGACCCCA,-0.227
18,ACCTCTAC,-0.058
19,CAACTTTC,0.0846
20,GAGAGGTA,-0.287
21,AACAGTTC,0.0577
22,CTCTTTGC,-0.0871
23,GTTAACAA,0.165
24,TGGCGCCA,-0.107
25,ACTGGGTC,-0.271

row,Sequence,PBM E-score
1,GGAAAGAA,0.128
2,ATGGTATA,-0.0158
3,CGGGGTCA,-0.107
4,TGCGCCAA,-0.00426
5,CCTGGGAC,-0.329
6,CCCTCCCA,-0.0968
7,AACAAGTA,-0.0265
8,AACCTCTG,-0.12
9,GCTTACGA,-0.135
10,CGTCTCAA,0.0441
11,AAAGAAAA,0.265
12,GTAATAGA,-0.066
13,ATTCTAAC,0.0232
14,AATTTACA,0.037
15,AGTATACG,0.0157
16,CCCCTTAC,-0.163
17,CAATAGCA,-0.0713
18,ACTACGCC,-0.131
19,ATAACATC,0.0727
20,ATGGGAAA,-0.161
21,CACTCCAA,-0.0555
22,ATAGCTCC,-0.169
23,CAAAAGTC,0.0782
24,GCTATACA,0.0638
25,GTGTCTTA,-0.13

row,Sequence,PBM E-score
1,ACCATAGT,-0.0256
2,GTAAACAA,0.154
3,CGCCATCC,-0.0918
4,GTTCAATA,0.138
5,AAGATCCA,0.0572
6,CTTTCTTA,-0.0148
7,CTTCCGGA,0.402
8,AGTACGCG,0.00663
9,GACTCGGC,0.121
10,GCGTAATA,-0.0365
11,GAATAGTC,-0.00027
12,TATCCCCA,-0.209
13,TCCACGAA,0.0722
14,GACATTAA,0.132
15,CCCCACGA,-0.182
16,CATGAGGA,-0.0756
17,CGACTTGC,-0.129
18,TACAGCTA,-0.261
19,CGTGAAAC,0.0529
20,GTGAGGAA,-0.0432
21,ACAATGAT,0.0383
22,ACGCAAAT,0.0394
23,AAACGAGT,0.0932
24,AACGATGC,-0.166
25,ATGTTGAA,0.133

# A section of the results above, as a working copy:
row,Sequence,PBM E-score
21,ACAATGAT,0.0383
22,ACGCAAAT,0.0394
23,AAACGAGT,0.0932
24,AACGATGC,-0.166

# (list continues)

row,Sequence,PBM E-score
1,AGTTTCAA,0.058
2,CTCAATGC,-0.0849
3,AGCTCCTC,-0.184
4,CCGTGCCC,-0.0431
5,GAGGAATC,-0.0819
6,AATACAAC,0.141
7,AATAACCA,0.0129
8,CTTACCAC,-0.118
9,ATGATTAC,0.0685
10,ACATTCAG,-0.0681
11,AGCCAGTA,-0.0757
12,AAATAAAA,0.0817
13,TAGATATA,0.185
14,GTTGCGAA,0.0378
15,TCGGGCAA,0.0501
16,GTCGGTAA,0.105
17,AGACAGCG,-0.0272
18,ATATAAAC,0.17
19,CGCACGGC,0.0607
20,AGTCGGCC,0.135
21,GGGTTTAA,-0.0383
22,CAGGACCG,0.041
23,CTACAGGA,-0.0405
24,CGGGCTCC,-0.152
25,AAATGATC,-0.0261

row,Sequence,PBM E-score
1,CTTATCAC,-0.162
2,GGATGCGA,-0.13
3,AGGAAACT,-0.0286
4,ACCCTATA,-0.319
5,ATTCCATC,0.116
6,GGCCTTAC,-0.176
7,CGGGCGGA,0.145
8,AAAGATAA,0.252
9,CTCACGTC,-0.193
10,CGGGACTA,0.0259
11,GAAACGAA,0.173
12,AAAATATG,0.125
13,CCCAATTA,-0.153
14,GAAGTGAC,-0.0306
15,CCACATGA,-0.0823
16,CGAAGGGC,-0.0223
17,ACGTTTAG,-0.0604
18,GCCAATTA,0.0492
19,CGTGTGTC,-0.0493
20,ATGCTTCG,0.0835
21,ACAGGATC,-0.217
22,GGGCTTCA,-0.255
23,CAAACGCG,0.133
24,ATAGTCAG,-0.05
25,GCGTTAGA,-0.00877

# Taken from above.
# PBM E-score, CCCAATTA is entered as -0.153
# PBM E-score, CTCACGTC is entered as -0.193
# PBM E-score, CAAACGCG is entered as 0.133

# Later entries

row,Sequence,PBM E-score
1,AATTAACG,0.255
2,AACGCGAC,-0.144
3,ATTACCTC,-0.0265
4,ATGCAAAG,-0.00638
5,ACAATAAT,0.18
6,CGACCTCG,-0.0922
7,ACTGAAGC,0.0345
8,CACTCCTG,-0.101
9,TCACGAGA,-0.19
10,GCACCAGA,-0.115
11,AGCCGCAA,0.0665
12,CCGCTTTC,-0.00893
13,ACCCGGAA,0.346
14,CTGAAGGC,-0.204
15,TATTTAGA,0.22
16,GTCTAGAA,0.139
17,CATCCCCG,0.0463
18,CAAAATTC,0.262
19,ATGATAGC,0.138
20,GAAAGTCA,0.0864
21,AAAGCCCA,-0.0201
22,AAGAATTA,0.134
